Results are given in words; binding and its absence hold for the method and conditions named. Binding seen in cells or lysates may run through a third protein. Some entries that bind do so weakly or less than the wild type. Sequences can lack the tags named with a protein.
Columns and labels:
[1] = target: T1, Flag-tagged PNLDC1 (mouse, wild type) (mouse) (UniProt B2RXZ1); assay: co-IP; Flag-PNLDC1 (wild type or E30A) and TDRKH-GFP co-expressed in HEK293T; lysed in trimming buffer (20 mM HEPES-KOH pH 7.0, 100 mM NaCl, 1.5 mM MgCl2, 0.1 mM EDTA, 0.1 mM DTT) with 1% Triton X-100; anti-FLAG M2 agarose beads; Western blot with anti-FLAG and anti-GFP
T1 sequence: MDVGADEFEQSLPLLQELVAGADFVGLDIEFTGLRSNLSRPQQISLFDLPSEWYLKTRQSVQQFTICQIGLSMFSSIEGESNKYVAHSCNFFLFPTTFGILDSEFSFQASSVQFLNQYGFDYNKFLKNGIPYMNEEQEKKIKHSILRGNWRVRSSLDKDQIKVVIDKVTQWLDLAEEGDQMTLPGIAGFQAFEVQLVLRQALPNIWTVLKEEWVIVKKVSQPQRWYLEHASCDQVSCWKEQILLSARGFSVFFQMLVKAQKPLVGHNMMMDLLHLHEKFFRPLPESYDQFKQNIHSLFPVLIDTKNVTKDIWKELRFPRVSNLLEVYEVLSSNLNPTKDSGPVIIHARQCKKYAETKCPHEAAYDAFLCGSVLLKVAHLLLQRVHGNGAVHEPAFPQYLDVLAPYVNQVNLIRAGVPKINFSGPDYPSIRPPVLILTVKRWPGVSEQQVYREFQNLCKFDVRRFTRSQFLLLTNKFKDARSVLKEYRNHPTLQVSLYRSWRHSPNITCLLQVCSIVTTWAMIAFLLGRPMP

[2] = target: T2, Flag-tagged PNLDC1 E30A (mouse, catalytically inactive) (mouse) (UniProt B2RXZ1); assay: as above
T2 sequence: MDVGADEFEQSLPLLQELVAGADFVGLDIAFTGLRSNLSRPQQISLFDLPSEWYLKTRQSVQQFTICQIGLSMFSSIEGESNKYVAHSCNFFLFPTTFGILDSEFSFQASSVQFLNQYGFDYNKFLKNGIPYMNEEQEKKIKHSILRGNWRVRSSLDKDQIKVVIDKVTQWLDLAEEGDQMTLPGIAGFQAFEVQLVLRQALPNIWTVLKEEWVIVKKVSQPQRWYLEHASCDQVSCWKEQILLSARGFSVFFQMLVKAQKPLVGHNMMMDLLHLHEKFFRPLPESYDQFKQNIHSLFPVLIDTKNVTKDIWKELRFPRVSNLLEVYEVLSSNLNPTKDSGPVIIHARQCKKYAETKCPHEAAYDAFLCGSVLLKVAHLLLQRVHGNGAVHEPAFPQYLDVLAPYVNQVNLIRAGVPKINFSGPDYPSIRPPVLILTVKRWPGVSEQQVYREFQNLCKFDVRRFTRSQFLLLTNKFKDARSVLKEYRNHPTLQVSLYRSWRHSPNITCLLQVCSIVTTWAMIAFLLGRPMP

binding [1]: binds
binding [2]: binds
B1: GFP-tagged TDRKH (mouse) (protein, UniProt Q80VL1 1-560)
chain: MSTERTSWTNLSTIQKIALGLGIPASATVAYILYRRYRESREERLTFVGEDDIEIEMRVPQEAVKLIIGRQGANIKQLRKQTGARIDVDTEDVGDERVLLISGFPVQVCKAKAAIHQILTENTPVFEQLSVPQRSVGRIIGRGGETIRSICKASGAKITCDKESEGTLLLSRLIKISGTQKEVAAAKHLILEKVSEDEELRKRIAHSAETRVPRKQPISVRREEVTEPGGAGEAALWKNTNSSMGPATPLEVPLRKGGGDMVVVGPKEGSWEKPNDDSFQNSGAQSSPETSMFEIPSPDFSFHADEYLEVYVSASEHPNHFWIQIIGSRSLQLDKLVSEMTQHYENSLPEDLTVHVGDIVAAPLSTNGSWYRARVLGTLENGNLDLYFVDFGDNGDCALKDLRALRSDFLSLPFQAIECSLARIAPTGEEWEEEALDEFDRLTHCADWKPLVAKISSYVQTGISTWPKIYLYDTSDEKKLDIGLELVRKGYAVELPEDMEENRTVPNMLKDMATETDDSLASILTETKKSPEEMPHTLSCLSLSEAASMSGDDNLEDDLF
